From the supplement of paper PMC9254222
Structures can show the parent of a compound that is named as a salt. Whole data set: some 1,100 compounds, median “Wnt reporter firefly/Renilla luciferase ratio relative to plate median” near 1.1, cut for the highest 2% near 1.6. The entries are a selection whose mix differs from that of the whole data set.

System: HEK293T (UBE3A T485A transfected, BAR Wnt reporter)
Assay: Wnt reporter firefly/Renilla luciferase ratio relative to plate median (fold (linear ratio)); higher = more Wnt/beta-catenin reporter activation
Conditions: 24 h
Procedure, shortened: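 Using Fugene 6, HEK293T cells in white 384-well plates (4500 cells/well; DMEM, 10% FBS, 37°C, 5% CO2) were transfected with a BAR firefly luciferase Wnt reporter, TK-Renilla and an expression plasmid. After four hours, robots dosed the chemicals at 0.01–100 uM, and a Dual-Glo luciferase readout followed 24 h later. Per-plate median-centred firefly/Renilla ratios gave Wnt activity, while per-plate median-centred raw Renilla signals gave cell health. Four biological replicates were averaged.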

| Structure (SMILES) | Wnt reporter firefly/Renilla luciferase ratio (concentration: 0.1 uM) | Wnt reporter firefly/Renilla luciferase ratio (concentration: 1 uM) | Wnt reporter firefly/Renilla luciferase ratio (concentration: 10 uM) | Wnt reporter firefly/Renilla luciferase ratio (concentration: 100 uM) | Wnt reporter firefly/Renilla luciferase ratio (concentration: 0.01 uM) |
| --- | --- | --- | --- | --- | --- |
| O=c1[nH]cnc2c1ncn2[C@H]1CC[C@@H](CO)O1 [2',3'-Dideoxyinosine] | 1.07 | 1 | 0.879 | 1.08 |  |
| O=c1[nH]cc(F)c(=O)[nH]1 [5-Fluorouracil] | 1.22 | 1.05 | 0.202 | 0.277 |  |
| COC(=O)CC(=O)OC [Dimethyl malonate] | 1.02 | 1.16 | 0.907 | 1.28 |  |
| COc1ccc(OC(F)(F)F)cc1CN[C@H]1CCCN[C@H]1c1ccccc1 | 1.18 | 1.06 | 0.514 |  |  |
| C/C=C/c1ccc(OC)cc1 [(E)-Anethole] | 1.22 | 0.971 | 1.15 | 1.58 |  |
| COC(=O)c1ccccc1C(=O)O [Monomethyl phthalate] | 1.05 | 1.09 | 1.11 | 1.4 | 1.05 |
| C=CCc1ccc(OC)c(OC)c1 [Methyleugenol] | 0.944 | 1.02 | 0.899 | 0.99 |  |
| Cc1nn(C)c(Oc2ccccc2)c1C=NOCc1ccc(C(=O)OC(C)(C)C)cc1 [Fenpyroximate (Z,E)] | 0.924 | 0.351 | 0.219 | 0.404 | 0.912 |
| CC12CCC3c4ccc(O)cc4CCC3C1CCC2O (stereo not drawn) [17-beta-estradiol] | 0.945 | 0.976 | 1.05 | 0.278 | 0.929 |
| CCCCCCCCCCCO [1-Undecanol] | 0.805 | 0.79 | 1.13 | 1.1 |  |
| CCOC(=O)c1ccc([C@H]2CC[C@H](NC[C@H](O)COc3ccc(O)c(NS(C)(=O)=O)c3)CC2)cc1.Cl | 1.32 | 0.943 | 0.776 |  |  |
| CC1=CC(=O)CC(C)(C)C1 [Isophorone] | 0.978 | 0.91 | 1.48 | 1.46 |  |
| CCCCOC(=O)c1ccc(O)cc1 [Butylparaben] | 0.891 | 1.22 | 1.01 | 0.18 |  |
| NNC(=O)c1ccncc1 [Isoniazid] | 0.84 | 0.861 | 1.24 | 1.17 |  |
| CCC(C)OC(=O)N1CCCCC1CCO (stereo unspecified) [Icaridin] | 0.907 | 1.04 | 1.15 | 1.22 | 1.07 |
| CC(=O)OCCOCCOCCOC(C)=O [Triethylene glycol diacetate] | 1.25 | 1.16 | 1.07 | 1.26 |  |

| Structure (SMILES) | Wnt reporter firefly/Renilla luciferase ratio (concentration: 0.1 uM) | Wnt reporter firefly/Renilla luciferase ratio (concentration: 1 uM) | Wnt reporter firefly/Renilla luciferase ratio (concentration: 10 uM) | Wnt reporter firefly/Renilla luciferase ratio (concentration: 100 uM) | Wnt reporter firefly/Renilla luciferase ratio (concentration: 0.01 uM) |
| --- | --- | --- | --- | --- | --- |
| Cc1nc(C)nc(N2C[C@@H](C)N(c3ccnc([C@@H](C)O)n3)[C@@H](C)C2)n1 | 1.16 | 1.13 | 1.09 | 0.602 |  |
| CCN(CC)C(=O)c1cccc(C)c1 | 1.26 | 1.04 | 1.19 | 1.13 | 1.39 |
| CCCCCCCCCC[N+](C)(C)[O-] [N,N-Dimethyldecylamine oxide] | 1.26 | 1.13 | 1.56 | 0.836 |  |
| CC(C)CC(C=O)NC(=O)C(CC(C)C)NC(=O)C(CC(C)C)NC(=O)OCc1ccccc1 (stereo unspecified) | 0.85 | 2.61 |  |  | 0.993 |
| O=S(=O)([O-])c1ccc(/N=N/c2c(O)ccc3cc(S(=O)(=O)[O-])ccc23)cc1.[Na+].[Na+] [FD&C Yellow 6] |  |  |  | 2.05 |  |
| CC(=O)[C@H]1CC[C@H]2[C@@H]3CCC4=CC(=O)CC[C@]4(C)[C@H]3CC[C@]12C [Progesterone] | 1.1 | 1.18 | 0.781 | 0.322 |  |
| CN1C(=O)N(c2ccccc2Br)Cc2cnc(Nc3ccc4c(c3)OCC(CO)O4)nc21 (stereo unspecified) | 0.694 | 0.73 | 1.19 |  |  |
| COC(=O)CCCC(=O)OC [Dimethyl glutarate] | 0.941 | 0.895 | 1.36 | 1.05 |  |
| c1ccc2[nH]nnc2c1 [1,2,3-Benzotriazole] | 1.1 | 0.881 | 1.01 | 1.32 |  |
| Cc1ccc(S(=O)(=O)NC(=O)NN2CCCCCC2)cc1 [Tolazamide] | 1.07 | 1.24 | 1.09 | 1.43 |  |
| CCOC(=O)CC(O)(CC(=O)OCC)C(=O)OCC [Triethyl citrate] | 1.15 | 1.2 | 1.07 | 1.33 |  |
| COC(=O)c1ccc(C(=O)OC)cc1 [Dimethyl terephthalate] | 1.12 | 0.902 | 1.37 | 1.4 |  |
| C[C@]12C=CC(=O)C=C1CC[C@@H]1[C@@H]2C(=O)C[C@@]2(C)[C@H]1CC[C@]2(O)C(=O)CO [Prednisone] | 0.89 | 0.741 | 0.763 | 0.685 |  |
| CCCC[C@H]1CN(CC2CCOCC2)C(=O)OC12CCN(C1(C)CCN(C(=O)c3c(C)ncnc3C)CC1)CC2 | 1.19 | 1.12 | 1.1 | 1.55 |  |
| Cc1ccc(C)c(O)c1C [2,3,6-Trimethylphenol] | 1.4 | 1.11 | 1.21 | 1.58 |  |
| CCCCCC(=O)O [Hexanoic acid] | 1.02 | 0.926 | 1.05 | 1.27 |  |

One compound at a time (already shown).
C/C=C/c1ccc(OC)cc1 [(E)-Anethole] reads Wnt reporter firefly/Renilla luciferase ratio (concentration: 0.1 uM): 1.22; Wnt reporter firefly/Renilla luciferase ratio (concentration: 1 uM): 0.971; Wnt reporter firefly/Renilla luciferase ratio (concentration: 10 uM): 1.15; Wnt reporter firefly/Renilla luciferase ratio (concentration: 100 uM): 1.58
CCCCCCCCCC[N+](C)(C)[O-] [N,N-Dimethyldecylamine oxide] reads Wnt reporter firefly/Renilla luciferase ratio (concentration: 0.1 uM): 1.26; Wnt reporter firefly/Renilla luciferase ratio (concentration: 1 uM): 1.13; Wnt reporter firefly/Renilla luciferase ratio (concentration: 10 uM): 1.56; Wnt reporter firefly/Renilla luciferase ratio (concentration: 100 uM): 0.836
CC(=O)OCCOCCOCCOC(C)=O [Triethylene glycol diacetate] reads Wnt reporter firefly/Renilla luciferase ratio (concentration: 0.1 uM): 1.25; Wnt reporter firefly/Renilla luciferase ratio (concentration: 1 uM): 1.16; Wnt reporter firefly/Renilla luciferase ratio (concentration: 10 uM): 1.07; Wnt reporter firefly/Renilla luciferase ratio (concentration: 100 uM): 1.26
